Test: general procedure: solution-phase peptide synthesis; N-hydroxysuccinimide ester
Settings: oxidative folding step, disodium salt

bis-(L-phenylalanyl-γ-L-glutamyl)-L-cysteinyl-bis-glycine Disodium Salt
oxidative folding yield: 95%
